Assay results taken from ChEMBL document CHEMBL1125008 (J Med Chem, 1990).

Biological target: T1, Serotonin 3 receptor (5HT3) (Mus musculus, UniProt Q9JHJ5+P23979)
T1 sequence (Q9JHJ5 whole entry): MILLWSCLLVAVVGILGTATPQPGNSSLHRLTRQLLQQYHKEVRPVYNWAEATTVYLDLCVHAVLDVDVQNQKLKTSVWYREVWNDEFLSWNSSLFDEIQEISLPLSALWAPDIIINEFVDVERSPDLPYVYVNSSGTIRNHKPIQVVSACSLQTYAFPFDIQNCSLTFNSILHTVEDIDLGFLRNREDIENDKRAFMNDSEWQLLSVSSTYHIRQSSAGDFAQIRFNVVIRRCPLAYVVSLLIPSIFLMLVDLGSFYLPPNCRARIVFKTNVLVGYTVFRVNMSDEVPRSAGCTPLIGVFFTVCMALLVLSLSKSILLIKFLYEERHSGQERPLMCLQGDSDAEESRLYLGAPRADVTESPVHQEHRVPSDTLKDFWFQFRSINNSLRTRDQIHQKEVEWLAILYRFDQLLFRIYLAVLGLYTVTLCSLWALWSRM
T1 sequence (P23979 whole entry): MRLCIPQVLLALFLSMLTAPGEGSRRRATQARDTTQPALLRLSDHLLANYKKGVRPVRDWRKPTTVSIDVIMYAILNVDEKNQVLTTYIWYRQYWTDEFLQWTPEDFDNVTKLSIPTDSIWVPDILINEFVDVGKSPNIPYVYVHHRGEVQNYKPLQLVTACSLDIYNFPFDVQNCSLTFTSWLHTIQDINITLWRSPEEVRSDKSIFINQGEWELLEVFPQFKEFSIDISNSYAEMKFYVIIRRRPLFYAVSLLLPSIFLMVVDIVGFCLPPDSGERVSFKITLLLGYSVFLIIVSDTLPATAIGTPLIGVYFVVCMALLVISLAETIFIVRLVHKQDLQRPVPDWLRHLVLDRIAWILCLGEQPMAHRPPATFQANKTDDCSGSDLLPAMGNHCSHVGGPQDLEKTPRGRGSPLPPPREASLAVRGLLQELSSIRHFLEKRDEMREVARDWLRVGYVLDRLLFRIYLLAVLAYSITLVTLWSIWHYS
Test: The binding affinity was measured for 5-hydroxytryptamine 3 receptor on NG 108-15 cell line of mouse neuroblastoma-glioma cells in presence of [3H]5 radioligand (in vitro)
Assay type: cell-based

CN1CCN2c3ccccc3Cc3ccccc3C2C1 (stereo unspecified) [MIANSERIN]
Ki: 252 nM
